Measurements reported in PubChem BioAssay AID1224826 (NIAID, 2016).
Shown is an unselected part of about 17,000 deposited reagents. About 1,110 of all reagents (6.6%) were called active. 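Active means lowered or raised reporter signal; replicate intensities are raw and not normalised per plate.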 Unmarked entries are inactive. Further read-outs or replicates are left out here.

Test: 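Genes that change LPS-induced Tnf promoter activity in mouse macrophages when knocked down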 (primary screen)
Cell system: RAW264.7 G9 macrophages from mouse bearing reporters for p65 (GFP) and the Tnf promoter (mCherry)
Reagent: siRNA pool against mouse genes, 100 nM
Timing: 16 h of LPS stimulation, after 2 days of siRNA transfection
Challenge: bacterial lipopolysaccharide (Salmonella minnesota R595), 10 ng/ml
Measured: 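Imaged Tnf reporter mCherry in nuclei, minus background, normalised per plate to the median and expressed as robust z-scores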
Scale: Tnf reporter robust z-score: higher = stronger Tnf promoter reporter signal after LPS; Tnf reporter intensity: higher = stronger Tnf promoter reporter signal
Call rule: 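a well counts as active at a score of -1.3 or below (Tlr4 knock-down control median) or above 3 (raised signal); controls and wells holding fewer than 50 cells are excluded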
Calls: active = Tnf reporter clearly lowered or raised; inactive = no clear change in Tnf reporter

no.	Gene	PubChem SID	Tnf reporter robust z-score	fewer than 50 cells in well	Tnf reporter intensity, replicate 1
1	Igsf9 (immunoglobulin superfamily, member 9)	SID315475981	0.1	enough cells in well	206
2	Aldh4a1 (aldehyde dehydrogenase 4 family, member A1)	SID315477754	-1.74 (active)	enough cells in well	91
3	Pkd1l3 (polycystic kidney disease 1 like 3)	SID315479772	-1.04	enough cells in well	93.2
4	Plekha5 (pleckstrin homology domain containing A5)	SID315476790	-1.38 (active)	enough cells in well	67.2
5	Nsmaf	SID315468256	-1.1	enough cells in well	140
6	Sptbn1 (spectrin beta, non-erythrocytic 1)	SID315469431	3.35 (active)	enough cells in well	249
7	Ggcx (gamma-glutamyl carboxylase)	SID315471452	0.31	enough cells in well	294
8	Npff (neuropeptide FF-amide peptide precursor)	SID315471268	-1.92 (active)	enough cells in well	65.8
9	Minar2 (membrane integral NOTCH2 associated receptor 2)	SID315478423	1.7	enough cells in well	269
10	9530009G21Rik (RIKEN cDNA 9530009G21 gene)	SID315481281	0.67	enough cells in well	260
11	Prrc2b (proline-rich coiled-coil 2B)	SID315478596	-0.09	enough cells in well	174
12	Peli1 (pellino 1)	SID315472923	-1.3 (active)	enough cells in well	75.1
13	Hs2st1 (heparan sulfate 2-O-sulfotransferase 1)	SID315470226	-0.02	enough cells in well	271
14	Mrpl55 (mitochondrial ribosomal protein L55)	SID315472902	0.52	enough cells in well	258
15	Tmem86a (transmembrane protein 86A)	SID315473294	3.2 (active)	enough cells in well	315
16	Nfyc (nuclear transcription factor-Y gamma)	SID315468167	-0.62	enough cells in well	198
17	Ms4a7 (membrane-spanning 4-domains, subfamily A, member 7)	SID315476804	-0.29	enough cells in well	123
18	Gprin3 (GPRIN family member 3)	SID315479684	1.64	enough cells in well	268
19	Prdx1 (peroxiredoxin 1)	SID315468381	0.62	enough cells in well	259
20	Slc22a1	SID315469291		fewer than 50 cells per well; well left out of calls	68.3
21	Supt20 (SPT20 SAGA complex component)	SID315471684	0.74	enough cells in well	309
22	Pemt (phosphatidylethanolamine N-methyltransferase)	SID315468464	-1.66 (active)	enough cells in well	69.2
23	Ifngr1 (interferon gamma receptor 1)	SID315467398	-0.1	enough cells in well	222
24	Med29 (mediator complex subunit 29)	SID315472910		fewer than 50 cells per well; well left out of calls	248
25	Nxnl1 (nucleoredoxin-like 1)	SID315479163	-1.17	enough cells in well	63.3
26	Or10h1b (olfactory receptor family 10 subfamily H member 1B)	SID315481998	-1.08	enough cells in well	197
27	Tcim (transcriptional and immune response regulator)	SID315473711	0.21	enough cells in well	229
28	Rbm4b (RNA binding motif protein 4B)	SID315472593	2.64	enough cells in well	377
29	Rasal1 (RAS protein activator like 1 (GAP1 like))	SID315468900	0.4	enough cells in well	336
30	Or10h28 (olfactory receptor family 10 subfamily H member 28)	SID315480559	-0.69	enough cells in well	85.3
31	Sbp (spermine binding protein)	SID315469103	-0.95	enough cells in well	66.2
32	Tmem39b (transmembrane protein 39b)	SID315478822	0.77	enough cells in well	231
33	Rpe65 (retinal pigment epithelium 65)	SID315469004	-0.83	enough cells in well	264
34	Chst5 (carbohydrate sulfotransferase 5)	SID315471678	0.26	enough cells in well	287
35	Trpv3	SID315479898	-1.53 (active)	enough cells in well	111
36	Wrap53 (WD repeat containing, antisense to Trp53)	SID315478042	-0.75	enough cells in well	163
37	Ubl7 (ubiquitin-like 7 (bone marrow stromal cell-derived))	SID315473808		fewer than 50 cells per well; well left out of calls	91.4
38	Cysltr1 (cysteinyl leukotriene receptor 1)	SID315471921	0.9	enough cells in well	248
39	Hus1b (HUS1 checkpoint clamp component B)	SID315477646	1	enough cells in well	301
40	Trpc5	SID315469839	1.52	enough cells in well	322
41	Nsun5 (NOL1/NOP2/Sun domain family, member 5)	SID315476235	-0.24	enough cells in well	164
42	Rpl24 (ribosomal protein L24)	SID315473446	3.51 (active)	enough cells in well	284
43	Or5b3 (olfactory receptor family 5 subfamily B member 3)	SID315480342	1.33	enough cells in well	247
44	Mul1 (mitochondrial ubiquitin ligase activator of NFKB 1)	SID315473513		fewer than 50 cells per well; well left out of calls	475
45	9430019C24Rik (RIKEN cDNA 9430019C24 gene)	SID315475457	0.59	enough cells in well	228
46	Rnf138 (ring finger protein 138)	SID315471584	1.49	enough cells in well	246
47	2310022A10Rik (RIKEN cDNA 2310022A10 gene)	SID315472392		fewer than 50 cells per well; well left out of calls	172
48	Tacr3 (tachykinin receptor 3)	SID315469569	-0.4	enough cells in well	240
49	Kdelr2	SID315472712	0.27	enough cells in well	242
50	Atp13a1 (ATPase type 13A1)	SID315477226	-0.61	enough cells in well	104
51	Tnfaip6 (tumor necrosis factor alpha induced protein 6)	SID315469762	0.07	enough cells in well	251
52	Slc22a13b	SID315476818	-0.46	enough cells in well	193
53	Ccdc71l (coiled-coil domain containing 71 like)	SID315474463	1.37	enough cells in well	188
54	Ltk (leukocyte tyrosine kinase)	SID315467771	2.81	enough cells in well	332
55	Aldh18a1 (aldehyde dehydrogenase 18 family, member A1)	SID315471548	-0.19	enough cells in well	194
56	Mast1 (microtubule associated serine/threonine kinase 1)	SID315471594	1.68	enough cells in well	329
57	Rbbp7	SID315479837	0.68	enough cells in well	336
58	Top1 (topoisomerase (DNA) I)	SID315469791	-0.9	enough cells in well	195

Taken from above.
Supt20 (SPT20 SAGA complex component) [SID315471684], fewer than 50 cells in well → enough cells in well
Ms4a7 (membrane-spanning 4-domains, subfamily A, member 7) [SID315476804], fewer than 50 cells in well → enough cells in well
Entry for Pkd1l3 (polycystic kidney disease 1 like 3) [SID315479772] in “Tnf reporter robust z-score”: -1.04
